27 molecules from PubChem BioAssay AID332 (DTP/NCI, 2004) can be followed below.

In this experiment the test system is mice, ADJ-PC-20 plasma cell tumor sc, T/C %. The experiment can be described thus: NCI In Vivo Anticancer Drug Screen. Data for tumor model ADJ-PC-20 Plasma Cell (subcutaneous) in unknown mice. To be noted: T/C endpoint: mean tumor weight, higher T/C = larger tumour; for T/C: evaluated on day 21. The method, then: The antitumor activity of compounds was measured in mice bearing transplantable tumors. Survival or tumor size were measured and the results are expressed as the measurement made in the treated group (T) divided by the measurement made in the vehicle treated control group (C). The tumor model used in this assay is ADJ-PC-20 Plasma Cell (subcutaneous) in unknown mice

The mark [1] stands for this setting: dose: 50.0 mg/kg/injection, schedule: Q01DX010 (ip), vehicle: other.
The mark [2] stands for this setting: dose: 100.0 mg/kg/injection, schedule: Q01DX010 (ip), vehicle: carboxymethylcellulose (CMC).
Where [3] appears, read: dose: 200.0 mg/kg/injection, schedule: Q01DX010 (ip), vehicle: carboxymethylcellulose (CMC).
Where [4] appears, read: dose: 125.0 mg/kg/injection, schedule: Q01DX010 (sc), vehicle: steroid suspending solution.

SMILES strings stand for the structures. The list shows only some results of the screen, not a fair sample: it is rich in T/C values a quarter to a half above the control, in often repeated tests (any T/C) and in doses without a T/C. Other doses and runs of a compound stand elsewhere. T/C is the treated group as % of the vehicle group. Schedule codes are those of the source, read here as Q, the interval in days (D) or hours (H), X, the number of doses. Some T/C values carry the count of animals alive at the toxicity check (mostly the fifth day); where none is given, no animal had died by that day. Some entries give survivors of the animals treated and no T/C: the source holds a T/C of zero for them, seemingly a mark for toxic or unscored doses. Survivors were counted at the toxicity check, usually on the fifth day, unless a day is given; later deaths do not show. Some entries were tested several times; their values stand side by side, smallest first.

As to `CC(=O)O[C@]1(C(C)=O)CC[C@H]2[C@@H]3C[C@H](C)C4=CC(=O)C=C[C@]4(C)[C@@]3(F)[C@@H](O)C[C@@]21C`, the survivor count is, setting by setting: (dose: 160.0 mg/kg/injection, schedule: Q01DX010 (sc), vehicle: steroid suspending solution) 0 of 10; (dose: 320.0 mg/kg/injection, schedule: Q01DX010 (sc), vehicle: steroid suspending solution) 2 of 10.
With `CCn1cnc2c(=S)nc[nH]c21`, the survivor count (dose: 125.0 mg/kg/injection, schedule: Q01DX010 (ip), vehicle: carboxymethylcellulose (CMC)) is 0 of 10.
As to `C[C@]12CCC(=O)C=C1CC[C@H]1[C@@H]3CC[C@](O)(C(=O)CO)[C@@]3(C)C[C@H](O)[C@@]12F`, the survivor count (dose: 20.0 mg/kg/injection, schedule: Q01DX010 (sc), vehicle: steroid suspending solution) is 4 of 10.
As for `Nc1nc(=S)c2ncn(C3OC(CO)C(O)C3O)c2[nH]1` (centres undefined), under “dose: 5.0 mg/kg/injection, schedule: Q01DX010 (ip), vehicle: carboxymethylcellulose (CMC)”, the survivor count is recorded as 0 of 10.
Consider `S=c1nc[nH]c2nc[nH]c12`, for which the survivor count by setting is: under setting [1], 0 of 6 and 5 of 10; (dose: 100.0 mg/kg/injection, schedule: Q01DX011 (ip), vehicle: other) 0 of 6 and 3 of 10; (dose: 200.0 mg/kg/injection, schedule: Q01DX011 (ip), vehicle: other) 0 of 6.
As for `COc1cc2c(c(OC)c1OC)-c1ccc(OC)c(=O)cc1[C@@H](NC(C)=O)CC2`, the survivor count reads like this: (dose: 0.12 mg/kg/injection, schedule: Q01DX010 (ip), vehicle: saline) 6 of 10; (dose: 0.25 mg/kg/injection, schedule: Q01DX010 (ip), vehicle: saline) 5 of 10; (dose: 0.5 mg/kg/injection, schedule: Q01DX010 (ip), vehicle: saline) 1 of 10; (dose: 1.0 mg/kg/injection, schedule: Q01DX010 (ip), vehicle: saline) 0 of 10; (dose: 63.0 micrograms/kg/injection, schedule: Q01DX010 (ip), vehicle: saline) 5 of 10.
As to `O=C1C(NC(=O)C2CCCCC2)=C(N2CC2)C(=O)C(NC(=O)C2CCCCC2)=C1N1CC1`, the T/C (dose: 18.8 mg/kg/injection, schedule: Q01DX010 (ip), vehicle: carboxymethylcellulose (CMC)) was 126 % of control [7 of 10 alive]. The survivor count (dose: 150.0 mg/kg/injection, schedule: Q01DX010 (ip), vehicle: carboxymethylcellulose (CMC)) is 2 of 10.
`O=C(Nc1ccc(NC2=NCCN2)cc1)c1ccc(C(=O)Nc2ccc(NC3=NCCN3)cc2)cc1`: the survivor count is given as 5 of 10 (dose: 16.0 mg/kg/injection, schedule: Q01DX010 (ip), vehicle: saline) and 0 of 10 (dose: 32.0 mg/kg/injection, schedule: Q01DX010 (ip), vehicle: saline).
Consider `N#[N+]c1cnc([O-])[nH]c1=O`, for which the survivor count was 0 of 10 (dose: 20.0 mg/kg/injection, schedule: Q01DX010 (ip), vehicle: carboxymethylcellulose (CMC)) and 0 of 10 (dose: 40.0 mg/kg/injection, schedule: Q01DX010 (ip), vehicle: carboxymethylcellulose (CMC)).
With `CC(=O)Nc1ccc2nc3ccc(NC(C)=O)cc3[n+](-c3ccccc3)c2c1`, under setting [2], the survivor count was 0 of 6.
As to `CCCCn1cnc2c(=S)nc[nH]c21`, the survivor count under setting [3] is given as 0 of 10.
As to `C[C@H]1C(=O)O[C@@H]2CCN3CC=C(COC(=O)[C@](C)(O)[C@@]1(C)O)[C@H]23`, the survivor count by setting is: (dose: 120.0 mg/kg/injection, schedule: Q01DX010 (ip), vehicle: carboxymethylcellulose (CMC)) 3 of 10; (dose: 240.0 mg/kg/injection, schedule: Q01DX010 (ip), vehicle: carboxymethylcellulose (CMC)) 0 of 10.
Regarding `CC(=O)N(C)C`, the survivor count (dose: 2000.0 mg/kg/injection, schedule: Q01DX010 (ip), vehicle: saline) is reported as 3 of 10.
Turning to `C[C@]12C=CC(=O)C=C1CC[C@@H]1[C@@H]2[C@@H](O)C[C@@]2(C)[C@H]1CC[C@]2(O)C(=O)CO`, the survivor count runs as follows: (dose: 63.0 mg/kg/injection, schedule: Q01DX010 (sc), vehicle: steroid suspending solution) 5 of 10; under setting [4], 0 of 10; (dose: 250.0 mg/kg/injection, schedule: Q01DX010 (sc), vehicle: steroid suspending solution) 0 of 10.
For the molecule `Cc1cc(N(CCCl)CCCl)ccc1N=Nc1ccccc1C(=O)O`, under “dose: 60.0 mg/kg/injection, schedule: Q01DX010 (ip), vehicle: carboxymethylcellulose (CMC)”, the survivor count is recorded as 0 of 10.
Consider `CCCNc1ncnc2[nH]ncc12`, for which the survivor count (dose: 40.0 mg/kg/injection, schedule: Q01DX010 (ip), vehicle: water) is 6 of 10.
Consider `CCN(CC)CCNc1ccc(C)c2sc3ccccc3c(=O)c12`, for which the T/C (dose: 3.12 mg/kg/injection, schedule: Q01DX010 (ip), vehicle: methylcellulose (MC)) is 145 % of control [9 of 10 alive]. For the same molecule, under “dose: 100.0 mg/kg/injection, schedule: Q01DX010 (ip), vehicle: methylcellulose (MC)”, the survivor count is recorded as 4 of 10.
Take `C=CC(CN1CC1)OC(C)=O` (centres undefined): the survivor count is, setting by setting: (dose: 15.0 mg/kg/injection, schedule: Q01DX010 (ip), vehicle: carboxymethylcellulose (CMC)) 0 of 10; (dose: 30.0 mg/kg/injection, schedule: Q01DX010 (ip), vehicle: carboxymethylcellulose (CMC)) 0 of 10.
With `C[C@@H]1C[C@@H]([C@H](O)CC2CC(=O)NC(=O)C2)C(=O)[C@@H](C)C1`, the survivor count is listed as 6 of 10 (dose: 12.5 mg/kg/injection, schedule: Q01DX010 (ip), vehicle: saline) and 0 of 10 (dose: 25.0 mg/kg/injection, schedule: Q01DX010 (ip), vehicle: saline).
Turning to `NC(=O)N(CCCl)N=O`, the survivor count (dose: 14.0 mg/kg/injection, schedule: Q01DX010 (ip), vehicle: carboxymethylcellulose (CMC)) was 0 of 10.
For the molecule `O=c1cnn(C2OC(CO)C(O)C2O)c(=O)[nH]1` (centres undefined), the survivor count (dose: 500.0 mg/kg/injection, schedule: Q01DX010 (ip), vehicle: water) is reported as 3 of 10 and the survivor count (dose: 1000.0 mg/kg/injection, schedule: Q01DX010 (ip), vehicle: water) is 1 of 10.
With `O=C(Nc1ccc(C2=NCCN2)cc1)c1ccc(C(=O)Nc2ccc(C3=NCCN3)cc2)c(Cl)c1`, the survivor count is, setting by setting: (dose: 12.5 mg/kg/injection, schedule: Q01DX010 (ip), vehicle: water) 5 of 10; (dose: 15.0 mg/kg/injection, schedule: Q01DX010 (ip), vehicle: water) 6 of 10; (dose: 30.0 mg/kg/injection, schedule: Q01DX010 (ip), vehicle: water) 6 of 10; (dose: 50.0 mg/kg/injection, schedule: Q01DX010 (ip), vehicle: water) 1 of 10; (dose: 60.0 mg/kg/injection, schedule: Q01DX010 (ip), vehicle: water) 2 of 10.
As for `C[N+](C)(C)c1ncnc2nc[nH]c12`, under setting [3], the survivor count is reported as 0 of 10.
For the molecule `Cc1n[nH]c(=O)[nH]c1=O`, the T/C runs as follows: under setting [1], 132 % of control; (dose: 800.0 mg/kg/injection, schedule: Q01DX010 (ip), vehicle: other) 140 % of control [9 of 10 alive].
In the case of `CSc1ncnc2c1ncn2C1OC(CO)C(O)C1O` (centres undefined), the survivor count reads like this: (dose: 6.25 mg/kg/injection, schedule: Q01DX010 (ip), vehicle: carboxymethylcellulose (CMC)) 6 of 10; (dose: 50.0 mg/kg/injection, schedule: Q01DX010 (ip), vehicle: carboxymethylcellulose (CMC)) 0 of 10; under setting [2], 0 of 10; under setting [3], 0 of 10.
Regarding `C[C@]12CCC(=O)C[C@H]1CC[C@@H]1[C@@H]2CC[C@@]2(C)[C@H]1CC[C@]2(C)O`, the survivor count (dose: 62.5 mg/kg/injection, schedule: Q01DX010 (sc), vehicle: steroid suspending solution) is 6 of 10. For the same molecule, the T/C under setting [4] is 128 % of control.
`N=[N+]=CC(=O)OCC(N)C(=O)O` (centres undefined): the survivor count reads like this: (dose: 5.0 mg/kg/injection, schedule: Q01DX010 (ip), vehicle: saline) 5 of 10; (dose: 10.0 mg/kg/injection, schedule: Q01DX010 (ip), vehicle: saline) 0 of 10.
